# In all, about 340,000 compounds went through this assay and about 170 (0.05%) were called active. This list was built around the results that the source calls inconclusive (neither active nor inactive); the mix of calls is not that of the screen. Calls follow the shape of the dose curve; as a rule, active = well fitted inhibition curve with a large enough effect in the signal ratio, with a control signal flat (not every such curve was filed as active); inconclusive = small, poorly fitted or top-dose-only effect, or effect the other way, or a change in a side signal; inactive = flat fitted curve, though single readings scatter; the % refers to the signal ratio. Potencies beside an inconclusive call are fits to weak or partial responses and may not hold up.
# Assay: qHTS Assay to Find Inhibitors of Chronic Active B-Cell Receptor Signaling;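 as to activity change, negative = inhibition: plate controls were basal doxycycline-induced cells for no effect and cells given 10 µM MG132 for full effect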
# Details: ABC-DLBCL IkBa-CBG/CBR reporter, luminescence ratio (green luciferase fused to IkBa over red control in TMD8 lymphoma cells), 4 h; activity change, negative = inhibition: at 46.1 µM (top of the series)
# Summary of the method: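 TMD8 ABC-DLBCL cells carrying doxycycline-inducible green luciferase fused to IkappaBalpha plus unfused red luciferase were exposed to compounds (up to 46 uM) for 4 hrs at 37C. Activity came from the overlap-corrected green/red luminescence ratio.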
# Potency is read from the fitted curve at half-maximal effect.
Compound,Potency,"activity change, negative = inhibition"
COc1cccc(CNCc2cc(OC)cc(OC)c2)c1,"inconclusive: 22.4 µM [falling, single point]",
CCOC(=O)Nc1ccc2c(c1)N(C(=O)N1CCN(C)CC1)c1ccccc1S2,"inconclusive: 18.4 µM [falling, single point]",
O=S(=O)(c1ccccc1)N(CC(O)COc1ccccc1)c1ccccc1 (stereo not given),,inactive: -10.5%
COc1ccc(CN(C)C(=O)COC(=O)c2ccc3c(c2)OCO3)cc1OC,"inconclusive: 16.4 µM [falling, partial curve, poor fit]",
O=C(CN1C(=O)NC2(CCCC2)C1=O)NC(c1ccccc1)c1ccccc1,,inactive: -8.96%
O=[N+]([O-])c1cc([N+](=O)[O-])c(N2CCCCCC2)cc1NCCO,,inconclusive: 2.98%
COc1ccccc1NC(=S)Nc1ccc2cn[nH]c2c1,"inconclusive: 11.2 µM [falling, single point]",
COc1ccc(OC)c(NC(=O)CN2C(=O)NC3(CCOc4ccccc43)C2=O)c1 (stereo not given),"inconclusive: 5.8 µM [falling, partial curve, poor fit]",
CCOc1ccc2oc(C(=O)OCC(=O)N3CC(C)OC(C)C3)c(C)c2c1 (stereo not given),,inconclusive: -6.84%
Nc1ncc(-n2cncn2)c(-c2ccccc2)n1,,inconclusive: 13.1%
N#CCSc1nc2ccccc2c(=O)n1CCCC(=O)NCc1ccco1,,inconclusive: 13.1%
COc1cccc(NC(=O)c2ccc(NCCCN3CCC(C)CC3)c([N+](=O)[O-])c2)c1,"inconclusive: 10 µM [falling, partial curve]",
COc1cccc2sc3ccc(NCc4ccc5c(c4)OCO5)cc3c(=O)c12,"inconclusive: 35.5 µM [falling, single point]",
CCCc1cc(C(=O)Nc2ccc(C)cc2)no1,,inconclusive: -29.8%
CCN(CC)c1ccc2cc(C(N)=O)/c(=N\NC(=O)c3ccncc3)oc2c1,,inconclusive: 0.0104%
N#CCCn1cc(/C=N/NC(N)=S)c(-c2ccccc2)n1,,inactive: 5.37%
c1ccc2c(Nc3ccc(N4CCOCC4)cc3)nc(N3CCOCC3)nc2c1,,inconclusive: -20.3%
O=C(Nc1ccccn1)C1CCN(S(=O)(=O)c2ccccc2)CC1,,inconclusive: 0.82%
Cc1ccn2cc(-c3ccc(S(=O)(=O)N4CCOCC4)cc3)nc2c1,,inconclusive: 9.07%
COc1ccccc1NC(=O)C1C2CCCCC21 (stereo not given),,inconclusive: 1.15%

# As entered above:
# Entry of COc1cccc2sc3ccc(NCc4ccc5c(c4)OCO5)cc3c(=O)c12 under Potency: inconclusive: 35.5 µM [falling, single point]
# Entry of O=S(=O)(c1ccccc1)N(CC(O)COc1ccccc1)c1ccccc1 (stereo not given) under activity change, negative = inhibition: inactive: -10.5%

# (cont.)

Compound,Potency,"activity change, negative = inhibition"
Cn1nnnc1Sc1ncnc2scc(-c3ccc4c(c3)OCO4)c12,,inactive: -12.3%
CCCCn1c(N)c(N(CCOC)C(=O)CCS(=O)(=O)c2ccc(Cl)cc2)c(=O)[nH]c1=O,,inconclusive: 1.72%
CC1CC(C)CN(C(=O)/C=C/c2ccc([N+](=O)[O-])s2)C1 (stereo not given),,inconclusive: 11.3%
O=C(Oc1ccc(/C=N/NC(=O)c2ccccc2F)cc1)c1ccccc1,,inconclusive: -7.35%
CCOC(=O)c1ccc(NC(=O)CCc2nc(-c3ccc(C)cc3)no2)cc1,,inconclusive: 7.34%
CC(/C=C1\SC(=S)N(CCCC(=O)Nc2ccc(C(=O)O)c(O)c2)C1=O)=C\c1ccccc1,"inconclusive: 18.4 µM [falling, partial curve]",
CCOc1ccc(N2C(=O)CS/C2=C(\C(Cl)=C(Cl)Cl)[N+](=O)[O-])cc1,"inconclusive: 0.13 µM [falling, full curve, poor fit]",
Cc1cccc(C(=O)NCc2ccco2)c1,,inactive: 0.279%
COc1ccc(S(=O)(=O)NCC(c2ccco2)N2CCOCC2)cc1OC (stereo not given),,inactive: 11.4%
O=C(NC1CCCC1)C(c1ccc(F)cc1)N(Cc1ccccc1Cl)C(=O)CCl (stereo not given),,inconclusive: -8.25%
COc1ccccc1CNC(=O)Cc1c[nH]c2ccccc12,,inconclusive: -1.17%
CCOC(=O)c1nnn(-c2nonc2N)c1COc1ccc(F)cc1,"inconclusive: 5.17 µM [rising, full curve, poor fit]",
COCCn1c(SCC(=O)Nc2ccc3c(c2)OCCO3)nc2c(c1=O)SC(C)C2 (stereo not given),"inconclusive: 1.3 µM [falling, partial curve, poor fit]",
COc1ccc(/C(N)=N/OC(=O)c2ccc([N+](=O)[O-])c(C)c2)cc1OC,,inconclusive: 6.68%
Cc1cc(-c2ccccc2)nc(SCc2ccc(C(=O)O)cc2)n1,,inconclusive: -0.425%
CSC(=NCCCN1CCOCC1)NS(=O)(=O)c1cccs1,,inconclusive: 11.2%
Cn1c(C(O)c2ccc3c(c2)OCO3)nc2ccccc21 (stereo not given),,inconclusive: 4.25%
CC1(C)c2[nH]c3ccccc3c2C[C@H]2C(=O)N(CCCCCO)CC(=O)N21,,inconclusive: -6.13%
CCSC1=N/C(=C\c2ccc(C)s2)C(=O)S1,,inconclusive: 2.4%
COc1ccc(C2N(C(=O)N(C)C)CCN2S(=O)(=O)c2ccc(OC)cc2)cc1 (stereo not given),,inconclusive: 1.76%
